This is an account of results in patent US12558356B2, “Immunophilin binding agents and uses thereof” (The Regents of the University of California, priority 2019, dated 2026).

SMILES strings stand for the structures. Structures were worked out from names or drawings and are uncertain.

Test [1] has as its system NFAT promoter in Jurkat cells. The test can be described thus: NFAT promoter secreted luciferase assay in Jurkat cells stimulated with PMA/ionomycin. The class given is cell-based. The settings on record: up to 10 μM, PMA 10 ng/mL and ionomycin 1 μg/mL, 16 h, tested form: formate.
In the next test the test system is MCF7 cells. The test can be described thus: Blocking of RapaLink-1 function in MCF7 cell culture (blots). The settings on record: 24 h treatment, tested form: formate.
Test [2] deals with mTOR signaling in brain and skeletal muscle. The test can be described thus: In vivo brain/periphery mTOR inhibition in mouse model, blocker combined with rapamycin or RapaLink-1. The settings on record: 1 mg/kg Rapalink-1 + 40 mg/kg compound, tested form: formate.
Another test relates to p-S6 level in MCF7 cells. As to the kind of experiment: Western blot of p-S6 level in MCF7 cells after combination treatment with Rapa/Rapalink and candidate compound (blockade score). The settings on record: 24 h, p-S6 level as fraction of DMSO control; for Rapamycin Blockade: 10 nM Rapa + 10 μM candidate compound; for RapaLink-1 Blockade: 10 nM Rapalink + 10 μM candidate compound. For orientation: In western blotting, separated proteins are transferred to a membrane and probed.

Another test concerns mTOR. The test can be described thus: Protection of mouse tissue from RapaLink-1 (western blotting of skeletal muscle and brain). Conditions: tested form: formate.

As for `CO[C@H]1C[C@@H](C)C/C(C)=C/[C@@H](CCCSCCNC(=O)Cc2ccccn2)C(=O)C[C@H](O)[C@@H](C)[C@@H](/C(C)=C/[C@@H]2CC[C@@H](O)[C@H](OC)C2)OC(=O)[C@@H]2CCCCN2C(=O)C(=O)[C@]2(O)O[C@H]1[C@@H](OC)C[C@H]2C`, the “immunosuppression (NFAT luciferase)” value in test [1] is given as “not immunosuppressive”. The “durability of protective effects after washout” value in the test with MCF7 cells is on record as “durable even after washout”. Further, the “In Vivo” value in test [2] is on record as “Dose: 1 mg/kg Rapalink-1 + 40 mg/kg ZZY05- 026; Blocks Rapalink-1 in muscle, Potentiates RapaLink-1 in brain”. In the test with p-S6 level in MCF7 cells (tested form: formate), the “Rapamycin Blockade” value is 3 (>70%) and the “RapaLink-1 Blockade” value was 3 (>70%). The “protection of peripheral tissue from RapaLink-1” value with mTOR is listed as “protects mouse peripheral tissue from RapaLink-1”.

For `CO[C@H]1C[C@@H](C)C/C(C)=C/[C@@H](C/C=C/c2ccncc2)C(=O)C[C@H](O)[C@@H](C)[C@@H](/C(C)=C/[C@@H]2CC[C@@H](O)[C@H](OC)C2)OC(=O)[C@@H]2CCCCN2C(=O)C(=O)[C@]2(O)O[C@H]1[C@@H](OC)C[C@H]2C`, the “RapaLink-1 Blockade” value with p-S6 level in MCF7 cells is reported as 3 (>70%).

On to `CO[C@H]1C[C@@H](C)C/C(C)=C/[C@@H](CCCSCCNC(=O)CNc2ccccn2)C(=O)C[C@H](O)[C@@H](C)[C@@H](/C(C)=C/[C@@H]2CC[C@@H](O)[C@H](OC)C2)OC(=O)[C@@H]2CCCCN2C(=O)C(=O)[C@]2(O)O[C@H]1[C@@H](OC)C[C@H]2C`, for which, in the test on p-S6 level in MCF7 cells (tested form: formate), the “Rapamycin Blockade” value is 3 (>70%) and the “RapaLink-1 Blockade” value is reported as 3 (>70%).
